Assay results reported in patent US9309278 (dated 2016).
*: point of attachment. Biotin = O=C1N[C@H]2[C@H](CS[C@H]2CCCCC(=O)*)N1

assay: general procedure: Fmoc solid-phase peptide synthesis; Rink-amide 4-methylbenzhydrylamine (MBHA) resin; conditions: late stage modification step

Question: Which step yield does the source give for Biotin-GKGGACRHRKVLRDN-NH2 here?
Answer: Its step yield is greater than 95%.

Question: For H-WACYKSL-NH2, which step yield is on record?
Answer: The step yield was 95%.

Question: For Ac-FQPKCG-NH2, which step yield is on record?
Answer: The step yield was greater than 95%.

Question: With “Biotin-GCGGCGLGCGGACR-NH2 (cysteine pairing not given here)” as the substance, how does the step yield read?
Answer: The step yield was 95%.

Question: Which step yield does the source give for H-VGCAEKSL-NH2 here?
Answer: The step yield was greater than 95%.
